{"source": "patent US10736923B2", "about": "“Methods and compositions for generating chondrocyte lineage cells and/or cartilage like tissue” (UNIVERSITY HEALTH NETWORK, priority 2013, dated 2020)", "key": {"[1]": {"system": "day 15 mesoderm populations", "test": "Micromass assay of day 15 mesoderm populations", "assay_type": "cell-based, human", "conditions": "first week of micromass culture", "method": "(§1) FIG. 2. Characterization of paraxial mesoderm derived from hPSCs. Flow cytometric analysis of day 5 mesoderm treated with no additional factors (0 DM, no FGF), FGF, 4 μM DM, or 4 μM DM+FGF. Day 5 profiles depict KDR and PDGFRa expression, a double-positive population (gated) indicates mesoderm that has cardiac potential (20). Treatment with FGF results in less PDGFRa expression on day 5. (B) Expression of cell surface markers CD73, CD105, and PDGFR-beta on mesoderm populations on day 15 of differentiation. […] Experimental cell treatments during day 4 to day 6 include the combination of Dorsomorphin, bFGF, TGFbeta inhibitor (SB431542) in the presence or absence of the wnt pathway inhibitor IWP2. Flow cytometric analyses of CD73 and CD105, on day 15 mesoderm populations derived as indicated. (D) Gene expression analyses of day 15 mesoderm populations derived in indicated factors. Nkx2.5 is a cardiac transcription factor, Meox1 and Nkx3.2 are paraxial mesoderm and somite transcription factors. (E) Micrographs depicting 1 day old micromasses and 1 week old micromasses derived from day 15 mesoderm populations as indicated. (F) Flow cytometric analysis of cardiac troponin T (cTnT) expression in 1 week old micromasses derived from day 15 mesoderms as indicated. […] Previous studies have shown that TGFBeta/BMP signaling is required to generate chondrocyte progenitors from paraxial mesoderm. […]"}, "[2]": {"system": "primitive streak-like mesoderm population", "test": "Paraxial mesoderm specification in monolayer culture, flow cytometry of cell surface markers", "assay_type": "cell-based, human", "method": "as §1, with “To generate chondrocytes, it” for “Previous studies have shown that TGFBeta/BMP signaling”, “essential” for “required”, “first specify this PS population to a” for “generate chondrocyte progenitors from”, “mesoderm fate.” for “mesoderm.”"}}, "note": "At least one compound was matched to its structure with a doubt left.", "data": [{"smiles": "c1cc(-c2cnn3cc(-c4ccc(OCCN5CCCCC5)cc4)cnc23)ccn1", "note": "[Dorsomorphin, reference compound]", "values": [{"measurement": "adherence and survival in micromass culture", "setting": "[1]", "result": "did not remain adherent to form chondrocytes"}, {"measurement": "expression patterns of PDGFRa and KDR", "setting": "[2]; T5, versus untreated mesoderm, DM T4 to T6", "result": "less PDGFRa than untreated mesoderm"}, {"measurement": "change of the CD73 and CD105 expressing population", "setting": "[2]; day 15, versus untreated mesoderm", "result": "increased this population only slightly"}]}]}
